Library screen at single concentrations

Data taken from ChEMBL document CHEMBL3988442, “University of Dundee, Small-Polar-MMV Screening Library” (2021).

Mtb cholesterol medium: 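Whole-cell growth test on Mycobacterium tuberculosis, read after 4 days in a medium based on cholesterol and the lipid DPPC; the read-out is not stated. Compounds at 50 µM. Higher reads as more growth inhibition (inferred: compounds with an IC50 in retests scored well above the rest). Size under these conditions: about 69,000 compounds, about 370 of them at 50% or above in at least one test.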
Mtb glucose medium: 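Whole-cell growth test on Mycobacterium tuberculosis, read after 3 days in glucose-containing 7H9 medium; the read-out is not stated. Tested at 50 µM. Direction is inferred from retests: higher values go with more growth inhibition. Size under these conditions: about 69,000 compounds, about 760 of them at 50% or above in at least one test.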

Each number is a percent effect as filed.
The controls that fix the scale are not given in the record; negative values are as filed.
The compounds are a random part of those screened.
Two or more numbers in one place are separate tests of the same structure; such repeats can differ widely.

| # | SMILES | Mtb cholesterol medium | Mtb glucose medium |
|---|---|---|---|
| 1 | `Cc1cc(C)nc(N2CCCC(Cn3cc(CN(C)C)nn3)C2)n1` (centres unmarked) | -1.755 | -6.996 |
| 2 | `O=C(Cc1ccccc1)NCCNC(=O)c1scnc1Cl` | 19.96 | -7.068 |
| 3 | `COc1ccccc1OC1CCN(C(=O)c2c[nH]c(=O)[nH]c2=O)CC1` | -6.435 & -0.6685 | -4.519 |
| 4 | `CN(C)C(=O)c1ccc2ccc(N3CCN(CC4CC4)CC3)n2c1` | 21.11 | -5.499 |
| 5 | `CCN1CCN(C(=O)c2cc(C(=O)OC)nn2-c2ccccc2)CC1` | -23.59 | -13.34 |
| 6 | `CN1CC(=O)N(c2ccccc2)Cc2c(NC3CC3)ncnc21` | -4.382 | 6.114 |
| 7 | `O=C(NC1CCC1)C1CCC2(CN(C(=O)c3ccco3)C2)O1` (centres unmarked) | -17.06 | -2.692 & -30.91 |
| 8 | `COCCN(C)CCN1CC2(CCN(C3CCOC3)CC2)OC1=O` (centres unmarked) | -3.067 & -3.204 | -9.719 |
| 9 | `CC(=O)N1CCCCC1c1nnc2n1CCNC2` (centres unmarked) | 1.459 | -14.67 |
| 10 | `CCNc1ncc(C(=O)NCC2OCCc3ccccc32)cn1` (centres unmarked) | 4.622 | 8.495 |
| 11 | `O=C(c1ncncc1Cl)N1CCC2(CCCC2)CC1` | 0.9055 | -13.27 |
| 12 | `CCOC(=O)CCn1cnc2onc(-c3ccc(OC)cc3)c2c1=O` | -43.39 | -56.28 |
| 13 | `CNC(=O)c1sc2ccccc2c1CC1CCCN1Cc1cnc(C)s1` (centres unmarked) | -2.149 & 5.121 | -38.5 |
| 14 | `CN(Cc1cnn(C)c1)C(=O)Cn1c(CS(C)(=O)=O)nc2ccccc21` | -16.25 | -4.906 & -8.514 |
| 15 | `CN(Cc1ccco1)C(=O)C1CSCN1C(=O)c1cccnc1` (centres unmarked) | -0.5761 | 9.248 |
| 16 | `CSc1ccc(-c2nc(CN3CCCC(CNC(C)=O)C3)c(C)o2)cc1` (centres unmarked) | -4.274 | -3.726 |
| 17 | `Cc1cc(CCC(=O)N2CCC(O)CC2)ccc1Br` | 16.26 | -0.3913 |
| 18 | `Cc1cc(C[S+]([O-])CC(=O)NCC(C)C)no1` (centres unmarked) | -2.084 | -1.789 |
| 19 | `NC(=O)CC1CCN(C(=O)NCc2cccc(-n3cccn3)c2)CC1` | -2.294 | -17.41 |
| 20 | `CS(=O)(=O)CCC(=O)NC1(c2cccc(C(F)(F)F)c2)CCC1` | -16.56 | -4.935 |
| 21 | `CNC(=O)NC(=O)CNc1cc(C(=O)OC)cc(C(F)(F)F)c1` | 6.711 | 15.48 |
| 22 | `CC(C)c1nnc(NC(=O)N(C)Cc2ccc(C(N)=O)cc2)s1` | -8.655 & -4.837 | 1.754 |
| 23 | `CCC1CN(C(=O)c2ccccc2N(C)C)CCN1C(C)C` (centres unmarked) | -10.74 | -4.15 & -2.638 |
| 24 | `O=C(Cc1ccccn1)N1CCC2(CCCN(CC3CCOCC3)C2)C1` (centres unmarked) | -3.523 & -9.124 | -9.038 & -3.004 |
| 25 | `CCc1nc(-c2ccc(NC(=O)N3CCCC3)cc2)no1` | 2.941 | 25.25 |
| 26 | `CCOc1ncccc1C(=O)N(C)Cc1ncc(C)c(OC)c1C` | -6.285 | -19.22 |
| 27 | `CCCNC(=O)c1cn(C(C)(C)C)c2ncccc12` | 13.12 | 23.89 |
| 28 | `CCN1CC(C(=O)NCCOc2ccc3c(c2)OCO3)CC1=O` (centres unmarked) | 1.629 | -17.62 |
| 29 | `O=C1CSc2ccccc2N1CC(=O)N1CCCCC1c1nccs1` (centres unmarked) | -9.832 & 7.027 | 11.71 |
| 30 | `c1csc(-c2nc(CN3CCn4c(nnc4C4CC4)C3)co2)c1` | 17.53 | 33.42 |
| 31 | `COc1cc(N2CCC(c3nccn3CCCN(C)C)CC2)nc(N)n1` | -31.89 | -43.16 |
| 32 | `[H][C@@]12CCN(C(=O)COC)C[C@]1(c1nc(C)no1)CCO2` | -24.67 | -6.86 & -38.41 |
| 33 | `CC1N(C)C(=O)COC12CCN(C(=O)Cc1ccsc1)CC2` (centres unmarked) | 10.53 | 9.1 & -1.902 |
| 34 | `CC(=O)NC1CCN(c2cc(-c3ccccc3)nc3c(C)c(C)nn23)C1` (centres unmarked) | -6.304 & 6.985 | 9.144 |
| 35 | `C=C(Br)CN(C)C1CCN(CCc2ccccn2)CC1` | 12.65 | 3.149 & 16.45 |
| 36 | `Cn1ccc(C(=O)N2CCOC(c3ccccc3)C2)cc1=O` (centres unmarked) | -7.725 | 4.418 |
| 37 | `O=S(=O)(NCCc1nnc2ccccn12)c1cccnc1` | -6.168 | -11.79 & -17 |
| 38 | `CNC(=O)Cc1noc(-c2cc3c(s2)CCC(C)(C)C3)n1` | 10.62 | 24.53 & 12.83 |
| 39 | `CN(CCCN1CCCCCC1)C(=O)c1ccccc1NCC(=O)O` | -12.81 | -38.19 |
| 40 | `N#Cc1c2n(c3c(=O)[nH]cnc13)CCCCC2` | -15.24 | -15.24 |
| 41 | `COCc1cc(O)nc(C2CCCN(Cc3cc(OC)ccc3F)C2)n1` (centres unmarked) | -14.53 | -14.49 |
| 42 | `COc1cccc(CNCc2cccnc2-n2cccn2)c1OC` | -15.38 | 104 & 2.555 |
| 43 | `O=C(c1cnc(O)cn1)N1CCC(CN2CCOCC2)CC1` | -16.86 | -1.602 |
| 44 | `O=C(Nc1cccc(F)c1)N1CCC(CO)(Nc2ccccc2)CC1` | 15.97 | 25.12 & -8.073 |
| 45 | `CN(Cc1ccsc1)C(=O)CN1CCc2c(ncn2C)C1` | 6.468 | 11.66 & 0.8738 |
| 46 | `Cc1[nH]ccc1C(=O)N(C)C1CC(=O)N(Cc2ccccc2)C1=O` (centres unmarked) | 0.5445 & -3.251 | -0.5771 & -9.39 |